Binding data for one molecule are collected here from patent US20070148663A1.

By UniProt entry, the sequences of proteins in these tests, tags left out. Residues count along the entry.
UniProt P25054, residues 2674-2843: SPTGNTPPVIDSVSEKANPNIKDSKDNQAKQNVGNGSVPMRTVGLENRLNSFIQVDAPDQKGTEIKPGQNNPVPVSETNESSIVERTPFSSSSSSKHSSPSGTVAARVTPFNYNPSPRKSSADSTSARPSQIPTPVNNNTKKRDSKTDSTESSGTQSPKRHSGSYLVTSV

The test has as its target GST-APC-C1 (amino acids 2674-2843) (UniProt P25054). The experiment in a line: GST pull-down from COS-7 lysates, anti-GFP western blot. On the technique in general: A western blot detects proteins with antibodies after separation by electrophoresis.

These are yes or no findings as the source states them, for the method shown. Binding seen in cells or lysates may run through a third protein. Some entries that bind do so weakly or less than the wild type. Sequences can lack the tags named with a protein.

B1: EB1-C-GFP (wild type; mouse EB1 amino acids 165-268 fused to GFP) (protein, UniProt Q61166 165-268, looked up, not shown: large carriers)
chain: ATQRTTAAPKAGPGMVRKNPGVGNGDDEAAELMQQVKVLKLTVEDLEKERDFYFGKLRNIELICQENEGENDPVLQRIVDILYATDEGFVIPDEGGPQEEQEEY
Take B1: the binding entry was “binds”.
